Literature values, collected in US9655849B2, “Solid particulate compositions comprising coenzyme Q10” (Particle Dynamics International, LLC, priority 2011, dated 2017).

Conditions: also printed as 2-3 mg/L; cited from earlier work

COC1=C(OC)C(=O)C(C/C=C(\C)CC/C=C(\C)CC/C=C(\C)CC/C=C(\C)CC/C=C(\C)CC/C=C(\C)CC/C=C(\C)CC/C=C(\C)CC/C=C(\C)CCC=C(C)C)=C(C)C1=O [coenzyme Q10]
water solubility: 2-3 ppm
